Laboratory results from article PMC4670726, “Systematic discovery of linear binding motifs targeting an ancient protein interaction surface on MAP kinases” (Molecular Systems Biology, 2015).
No constants are given. Whether binding was seen depends on the method and setting. Some binding calls cover weakened binding; strength is not graded here.

Sequences of proteins named here, by UniProt entry; tags and fusion partners are left off.
UniProt P45983: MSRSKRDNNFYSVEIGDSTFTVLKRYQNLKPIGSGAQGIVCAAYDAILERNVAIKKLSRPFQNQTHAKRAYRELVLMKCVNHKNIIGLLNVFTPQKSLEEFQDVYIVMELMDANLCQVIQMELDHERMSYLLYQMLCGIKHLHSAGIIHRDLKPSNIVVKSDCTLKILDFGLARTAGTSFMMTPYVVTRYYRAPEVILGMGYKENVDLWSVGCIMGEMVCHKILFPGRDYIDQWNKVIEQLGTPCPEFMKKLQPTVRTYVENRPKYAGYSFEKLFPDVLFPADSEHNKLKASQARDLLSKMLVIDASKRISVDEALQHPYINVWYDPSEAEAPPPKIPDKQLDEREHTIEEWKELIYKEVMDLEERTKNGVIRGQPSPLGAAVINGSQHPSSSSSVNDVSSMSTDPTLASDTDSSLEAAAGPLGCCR

Biological target: JNK1 (as used in the fluorescence polarization titrations) (human) (UniProt P45983)
Assay: fluorescence polarisation; competition: 50 nM N-terminally labeled reporter peptide mixed with MAPK at ~60–80% complex formation, increasing amounts of unlabeled synthetic test peptide added; 384-well plates, triplicates; Ki from a competition binding equation; both purified

binding: binds
Binder: RKERPTSLNFPL (N-terminally labeled with carboxyfluorescein or carboxytetramethylrhodamine) [pep JIP3, labeled reporter peptide]
